Data published in patent WO2019216345A1.
These are yes or no findings as the source states them, for the method shown. Some binding calls cover weakened binding; strength is not graded here. Where a sequence is shown, tags or fusion partners need not be part of it.

Target: T1, drebrin of wild-type mouse (cerebral cortex extract) (mouse) (UniProt Q9QXS6)
T1 sequence (looked up): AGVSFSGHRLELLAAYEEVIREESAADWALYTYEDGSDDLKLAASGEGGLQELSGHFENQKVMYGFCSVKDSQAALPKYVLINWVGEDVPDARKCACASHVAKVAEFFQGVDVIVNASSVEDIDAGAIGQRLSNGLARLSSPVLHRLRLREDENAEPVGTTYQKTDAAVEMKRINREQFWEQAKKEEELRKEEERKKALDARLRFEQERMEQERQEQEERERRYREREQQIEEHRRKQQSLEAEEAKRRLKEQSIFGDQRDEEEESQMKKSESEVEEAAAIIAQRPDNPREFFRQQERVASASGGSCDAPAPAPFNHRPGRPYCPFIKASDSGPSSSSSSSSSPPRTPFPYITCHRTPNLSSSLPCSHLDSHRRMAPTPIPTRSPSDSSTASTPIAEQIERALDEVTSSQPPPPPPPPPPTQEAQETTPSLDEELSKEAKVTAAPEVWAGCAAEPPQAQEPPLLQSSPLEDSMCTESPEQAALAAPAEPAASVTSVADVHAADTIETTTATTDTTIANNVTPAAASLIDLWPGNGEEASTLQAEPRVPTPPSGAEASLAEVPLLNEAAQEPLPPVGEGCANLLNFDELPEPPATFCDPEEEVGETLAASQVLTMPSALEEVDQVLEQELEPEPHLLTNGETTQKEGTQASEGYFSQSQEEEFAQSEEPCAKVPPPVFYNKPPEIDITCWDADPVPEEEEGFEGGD
Assay: Western blot, cerebral cortex extracts of wild-type and drebrin knockout mice; band at 140 kDa in WT only

binding: binds
B1: Drebrin-binding peptide-human IgG Fc fusion antibody in which #1 peptide is fused with the Fc region of human IgG antibody (#1Fc antibody) (Fc fusion, not shown: a dimerising Fc or GST)
chain: QVQLVESGGGLVRAGGSLRLSCAATGRTFSAYTMGWFRQAPGKEREFVAAVTRSSTSTYYAGSVKGRFTISRDNAKNMVYLQMNNLEPEDTAVYYCHARRPSTTGHWGQGTQVTVSSEPKTPKPQSA
